Consider one molecule from publication PMC6333334.

The target of this assay is T1, Drosophila Crumbs bait: C-terminal-most extracellular EGF-like repeat, transmembrane domain and cytoplasmic tail (aa 2034-2189), STE2-Crb-Cub-LexA-VP16 (Drosophila melanogaster) (UniProt P10040).
T1 sequence: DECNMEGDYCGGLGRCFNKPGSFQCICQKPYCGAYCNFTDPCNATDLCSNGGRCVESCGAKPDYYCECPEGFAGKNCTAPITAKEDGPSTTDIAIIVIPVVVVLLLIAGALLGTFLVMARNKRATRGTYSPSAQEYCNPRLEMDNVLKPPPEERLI
Kind of assay: two-hybrid; modified membrane yeast two-hybrid (MBmate, split ubiquitin): bait STE2-Crb-Cub-LexA-VP16, prey NubG-x from a Drosophila embryo library; screen and 1-by-1 test with two independent clones; growth on medium without tryptophan, leucine and histidine, with 3-AT.

These are yes or no findings as the source states them, for the method shown. Some binding calls cover weakened binding; strength is not graded here.

B1: Apnoia (CG15887), full-length prey clone of the NubG-x library (protein, UniProt Q9VFX3 1-137)
chain: MAANQKIVFALVCLFLACDLVLGQQQAANSSDSDSDVAESRTFGHHFLRRISFALVPGAFVVGVITTLLAALTVVSIKGLGVGVILLVLAIGQMLSRALPVQAAAAYAAAPVPVQAPVPVVYSHSHTQQPVWLEKEW
In the case of B1, the binding entry is listed as “binds”.
